PubChem BioAssay AID1224828, NIAID | 2016
Assay: 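Find genes required for NF-kappaB p65 moving into the nucleus after LPS in mouse macrophages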 (primary screen). Cells: mouse RAW264.7 G9 macrophage reporter cells (GFP-p65, Tnf promoter-mCherry). Reagent: siRNA pool against mouse genes, 100 nM. Timing: 2 days siRNA transfection, then 40 min LPS before fixation. Treatment: LPS (Salmonella minnesota R595) at 10 ng/ml. Read-out: 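Imaged p65 nuclear translocation ratio, normalised to the plate median, converted to robust z-scores and averaged across two replicates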. Reading the numbers: p65 translocation robust z-score: higher = more nuclear NF-kappaB p65 after LPS than the plate median; nuclear/cytoplasmic p65 ratio: higher = more nuclear NF-kappaB p65. Call rule: 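Active if robust z is above 3.3 (negative regulators) or below -1.56, the Tlr4 control median (positive regulators); activity score 50 or more; control wells not called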. Meaning of the calls: active = hit (p65 shift raised or lowered); inactive = no clear change.
Shown is an unselected part of about 17,000 reagents tested. Over the whole deposit, 762 (4.5%) were called active. 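Active calls include both raised and lowered p65 entry, mostly lowered; wells with fewer than 50 cells lack a z-score.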 Raw values are not corrected between plates. The numbers tell different reagents against one gene apart.

no.	gene symbol	reagent	p65 translocation robust z-score	nuclear/cytoplasmic p65 ratio, rep 1	nuclear/cytoplasmic p65 ratio, rep 2	low cell count flag	outcome
1	Ndufs4 (NADH:ubiquinone oxidoreductase core subunit S4)	1	0.63	1.52	1.42	enough cells to score	inactive
2	Fthl17e (ferritin, heavy polypeptide-like 17, member E)	1	-0.27	1.63	1.36	enough cells to score	inactive
3	Drd4 (dopamine receptor D4)	1	-0.29	1.43	1.35	enough cells to score	inactive
4	Clptm1 (cleft lip and palate associated transmembrane protein 1)	1	0.86	1.74	1.91	enough cells to score	inactive
5	Slit1 (slit guidance ligand 1)	1	-1.14	1.36	1.35	enough cells to score	inactive
6	Apobr (apolipoprotein B receptor)	1	-0.85	1.51	1.47	enough cells to score	inactive
7	Dlc1 (deleted in liver cancer 1)	1		1.24	1.09	fewer than 50 cells per well; well left out of scoring	inactive
8	Dlc1 (deleted in liver cancer 1)	2	0.77	1.41	1.63	enough cells to score	inactive
9	Tdrd7 (tudor domain containing 7)	1	0.29	1.57	1.55	enough cells to score	inactive
10	Atrip (ATR interacting protein)	1	-0.66	1.55	1.48	enough cells to score	inactive
11	Klc1 (kinesin light chain 1)	1	1.98	1.81	1.57	enough cells to score	inactive
12	Tsr2 (TSR2 20S rRNA accumulation)	1	0.43	1.41	1.31	enough cells to score	inactive
13	Hibch (3-hydroxyisobutyryl-Coenzyme A hydrolase)	1	-0.46	1.42	1.28	enough cells to score	inactive
14	Lhfpl6 (LHFPL tetraspan subfamily member 6)	1	0.33	1.58	1.74	enough cells to score	inactive
15	Slc43a2	1		1.33	1.6	fewer than 50 cells per well; well left out of scoring	inactive
16	Dnaaf4 (dynein axonemal assembly factor 4)	1	-2.63	1.15	0.989	enough cells to score	active
17	Slc13a2	1	0.02	1.47	1.2	enough cells to score	inactive
18	Slc50a1	1		1.28	1.2	fewer than 50 cells per well; well left out of scoring	inactive
19	Ly6c1 (lymphocyte antigen 6 family member C1)	1	-0.88	1.63	1.37	enough cells to score	inactive
20	Ezr (ezrin)	1	-0.98	1.35	1.39	enough cells to score	inactive
21	Zkscan2 (zinc finger with KRAB and SCAN domains 2)	1		1.22	1.31	fewer than 50 cells per well; well left out of scoring	inactive
22	Uggt1 (UDP-glucose glycoprotein glucosyltransferase 1)	1	-1.43	1.37	1.56	enough cells to score	inactive
23	Patz1 (POZ (BTB) and AT hook containing zinc finger 1)	1	0.55	1.6	1.57	enough cells to score	inactive
24	Wdr54 (WD repeat domain 54)	1		1.13	1.32	fewer than 50 cells per well; well left out of scoring	inactive

4 consecutive records from above, quoted:
no.	gene symbol	reagent	p65 translocation robust z-score	nuclear/cytoplasmic p65 ratio, rep 1	nuclear/cytoplasmic p65 ratio, rep 2	low cell count flag	outcome
18	Slc50a1	1		1.28	1.2	fewer than 50 cells per well; well left out of scoring	inactive
19	Ly6c1 (lymphocyte antigen 6 family member C1)	1	-0.88	1.63	1.37	enough cells to score	inactive
20	Ezr (ezrin)	1	-0.98	1.35	1.39	enough cells to score	inactive
21	Zkscan2 (zinc finger with KRAB and SCAN domains 2)	1		1.22	1.31	fewer than 50 cells per well; well left out of scoring	inactive
